Experimental data from article doi:10.1101/694695 (bioRxiv, 2019).
No constants are given. Whether binding was seen depends on the method and setting. Some entries that bind do so weakly or less than the wild type. Sequences can lack the tags named with a protein.

Key:
[1] = target: T1, E. coli MS115-1 CdnC (yeast two-hybrid fusion) (E. coli MS115-1) (UniProt D7Y2H2); assay: two-hybrid
T1 sequence: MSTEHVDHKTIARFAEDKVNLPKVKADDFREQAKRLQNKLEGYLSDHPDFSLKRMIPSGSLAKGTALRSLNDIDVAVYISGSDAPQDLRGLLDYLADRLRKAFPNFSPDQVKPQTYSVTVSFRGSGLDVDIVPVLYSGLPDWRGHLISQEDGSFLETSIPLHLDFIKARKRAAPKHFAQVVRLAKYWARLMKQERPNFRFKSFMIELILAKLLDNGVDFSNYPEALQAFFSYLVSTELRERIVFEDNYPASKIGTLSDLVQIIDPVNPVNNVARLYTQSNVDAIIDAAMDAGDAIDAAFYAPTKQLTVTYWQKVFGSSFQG

[2] = target: E. coli MS115-1 NucC (yeast two-hybrid fusion) (E. coli MS115-1) (UniProt D7Y2H5); assay: two-hybrid
[3] = target: P. aeruginosa ATCC27853 NucC (yeast two-hybrid fusion) (P. aeruginosa ATCC27853) (UniProt P0DTF8); assay: two-hybrid
[4] = target: T2, Ec CdnC:HORMA complex (yeast three-hybrid, both genes in pBridge) (E. coli MS115-1) (UniProt D7Y2H2+D7Y2H3); assay: yeast three-hybrid
T2 sequence 1: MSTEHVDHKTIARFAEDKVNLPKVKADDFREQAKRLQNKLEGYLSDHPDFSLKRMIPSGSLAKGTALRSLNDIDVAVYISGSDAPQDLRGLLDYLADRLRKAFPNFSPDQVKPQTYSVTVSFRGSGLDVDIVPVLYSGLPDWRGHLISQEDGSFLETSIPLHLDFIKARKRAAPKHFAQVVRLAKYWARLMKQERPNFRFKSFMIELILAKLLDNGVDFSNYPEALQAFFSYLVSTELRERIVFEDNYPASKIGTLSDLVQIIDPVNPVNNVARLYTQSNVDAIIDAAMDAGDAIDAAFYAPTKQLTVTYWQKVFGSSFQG
T2 sequence 2: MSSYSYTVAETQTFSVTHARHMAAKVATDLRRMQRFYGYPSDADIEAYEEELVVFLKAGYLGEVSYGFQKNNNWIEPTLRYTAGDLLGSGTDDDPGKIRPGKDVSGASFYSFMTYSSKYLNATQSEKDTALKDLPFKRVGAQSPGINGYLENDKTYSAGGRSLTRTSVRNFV

B1: E. coli MS115-1 HORMA (yeast two-hybrid fusion) (protein, UniProt D7Y2H3 1-172)
chain: MSSYSYTVAETQTFSVTHARHMAAKVATDLRRMQRFYGYPSDADIEAYEEELVVFLKAGYLGEVSYGFQKNNNWIEPTLRYTAGDLLGSGTDDDPGKIRPGKDVSGASFYSFMTYSSKYLNATQSEKDTALKDLPFKRVGAQSPGINGYLENDKTYSAGGRSLTRTSVRNFV
binding [1]: binds

B2: E. coli MS115-1 NucC (yeast two-hybrid fusion) (enzyme, UniProt D7Y2H5 1-241)
chain: MSDWSLSQLFASLHEDIQLRLGTARKAFQHPGAKGDASEGVWIEMLDTYLPKRYQAANAFVVDSLGNFSDQIDVVVFDRQYSPFIFKFNEQIIVPAESVYAVFEAKQSASADLVAYAQRKVASVRRLHRTSLPIPHAGGTYPAKPLIPILGGLLTFESDWSPALGMSFDKALNGDLSDGRLDMGCVASHGHFYFNNIDSKFNFEHGNKPATAFLFRLIAQLQFSGTVPMIDIDAYGKWLAN
binding [2]: binds

B3: P. aeruginosa ATCC27853 NucC (yeast two-hybrid fusion) (enzyme, UniProt P0DTF8 1-241)
chain: MSQWSLSQLLSSLHEDIQQRLSVVRKTFGHPGTKGDASENVWIDMLDTYLPKRYQAAKAHVVDSLGNFSQQIDVVVFDRQYSPFIFTYENETIIPAESVYAVFEAKQTADAGLVAYAQEKVASVRRLHRTSLPIPHAGGTYPAKPLIPILGGLLTFESEWSPALGPSMDKALNANLTEGRLDIGCVAAHGHFFYDQASGAYSYTNENKPATAFLFKLIAQLQFSGTVPMIDVEAYGQWLTK
binding [3]: binds

B4: Ec Pch2^EQ (E159Q; yeast three-hybrid fusion in pGADT7) (enzyme, UniProt D7Y2H4 1-311)
chain: MNVKPSLDELFERRINFPDFEPQERLARLVGLDEHKDRLSKILGLLVNPYGIQEWAKKYHPDARAAVDTVLRRPPLVVLAGDVGSGKTELAETIGDAVARQEDIDITLYPLSLATRGQGRVGEMTQLVSAAFDYTIEAADKLKNTNGKARGAVLLLIDQADALAQSRENAQMHHEDRAGVNAFIRGIDRIANQKLPAAVLMCTNRLKALDPAVQRRAAEILTFSRPNDEQRHYLLHSKLTGLGLNSTAVEELVRLTGPRDPNSPGFTFSDITQRLIPSIILAAYPYNAVSVHSALQVVNKMTPTPAFIDRQ
binding [4]: binds
